Some of the results follow.

This test addresses T1, OsSMF1 (Oryza sativa, UniProt Q6ZLB0 1-436).
T1 sequence: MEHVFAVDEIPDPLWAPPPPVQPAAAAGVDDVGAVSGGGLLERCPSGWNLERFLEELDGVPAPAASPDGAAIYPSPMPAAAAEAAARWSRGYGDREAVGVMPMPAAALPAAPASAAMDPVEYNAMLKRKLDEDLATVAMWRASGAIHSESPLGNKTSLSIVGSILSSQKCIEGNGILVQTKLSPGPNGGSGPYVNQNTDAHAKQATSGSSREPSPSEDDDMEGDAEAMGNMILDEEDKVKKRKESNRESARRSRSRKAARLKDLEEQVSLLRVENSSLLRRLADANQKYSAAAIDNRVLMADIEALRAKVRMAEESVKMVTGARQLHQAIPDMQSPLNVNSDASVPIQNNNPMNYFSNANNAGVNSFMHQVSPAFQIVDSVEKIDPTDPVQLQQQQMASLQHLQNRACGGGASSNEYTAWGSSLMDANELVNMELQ
Briefly: protein-binding microarray (RPBM); PBS, 2% BSA, 51.3 ng/ul salmon testes DNA, 50 uM zinc acetate, 200 nM TF, 25 C, 1 h; high values mean tight binding. The settings on record: protein: recombinant; tags: N-terminal polyhistidine and DsRed monomer fusion (pET32a); chain copies: 2; label: CyDye5-dUTP incorporated in the synthesized complementary strand; 3' TTTTT single-stranded linker to array surface; dsDNA, one strand shown. Put shortly:
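Transcription factors were made in E. coli BL21-CodonPlus as N-terminal fusions to a polyhistidine tag and DsRed, then purified on Ni–NTA. After primer extension with Cy5-dUTP and blocking with 2% BSA, a custom Agilent array was exposed for 1 h at 25 °C to 200 nM protein in PBS, 2% BSA, salmon testes DNA and 50 µM zinc acetate. Washed arrays were scanned on an Axon 4000B, and the binding signal is per-feature fluorescence intensity in arbitrary units.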
As for “CACCAGGAGTCCAGGAGGGCAGCAGTGTGACGTCGCCGGCCGGAGTCACCTAGTGCAG”, the binding signal was 4550 fluorescence intensity (a.u.).

Consider “GTGGATGTGAGCATCAGTCATAAATAACGAACAAGTGGCTCGGAGTCACCTAGTGCAG”, for which the binding signal is 22800 fluorescence intensity (a.u.).

For “GCTGCTCGTGCTCGCGGTCGTGCTGCTCCCGAGGACCGCACGGAGTCACCTAGTGCAG”, the binding signal was 16300 fluorescence intensity (a.u.).

For the sequence “AATAGTCAATTCCAGGGTTTCCTGACCCGGTGACCTAGTCCGGAGTCACCTAGTGCAG”, the binding signal was 3150 fluorescence intensity (a.u.).

“ATGGAGAAGGGTGGTGGACCGGCTTTGATGGCAGGGGCATCGGAGTCACCTAGTGCAG”: the binding signal is 3640 fluorescence intensity (a.u.).

For “GTGTGTTCTTCGTCGTCGTCGTGTTCGTTTTGGATTTTGGCGGAGTCACCTAGTGCAG”, the binding signal was 3400 fluorescence intensity (a.u.).

As to “TATTCGTCGGCTAAGGTTGCATGTCATGTAGTATTCTAAGCGGAGTCACCTAGTGCAG”, the binding signal was 3160 fluorescence intensity (a.u.).

Turning to “AAGTTGCAACAAGTCACGATATCACATAAATTTGCATGTTCGGAGTCACCTAGTGCAG”, the binding signal is 5060 fluorescence intensity (a.u.).

As to “CAAGAAATCGGTGGCCCACGCCACACATGACCGTAGTCGACGGAGTCACCTAGTGCAG”, the binding signal is 3880 fluorescence intensity (a.u.).

As to “GAGCTCGTGGGATTTGGTTATTGCGACGTGTCTACACTTGCGGAGTCACCTAGTGCAG”, the binding signal is 5080 fluorescence intensity (a.u.).

In the case of “GGCGGTCCAGCACGGCCACCACGACCGGCTCGGACGCCGTCGGAGTCACCTAGTGCAG”, the binding signal was 3270 fluorescence intensity (a.u.).

For “TTCTGGCAGCGCCAGACATGTCATACTGACATTTCCCTTCCGGAGTCACCTAGTGCAG”, the binding signal is 4960 fluorescence intensity (a.u.).

For the sequence “CCCGTGCTTCTGCAGTACAGCCACGCCGATCCCAACAGGACGGAGTCACCTAGTGCAG”, the binding signal was 3220 fluorescence intensity (a.u.).

Turning to “CGCAGCATCACGGCCTCCTCTCCCAACGTTCACTTGCGATCGGAGTCACCTAGTGCAG”, the binding signal was 3340 fluorescence intensity (a.u.).

Turning to “TAGTTACATCGTAGCGTTCTCTTCCAGTACTCATGGCCAACGGAGTCACCTAGTGCAG”, the binding signal was 3280 fluorescence intensity (a.u.).

“AAAGAATCAGCCACCTCACATGATACTATTATGATATGGTCGGAGTCACCTAGTGCAG”: the binding signal was 4260 fluorescence intensity (a.u.).

As for “TGTGCGCGCGTCACGGTTTCCTTCCACGTCTCGTCGCTTCCGGAGTCACCTAGTGCAG”, the binding signal is 6100 fluorescence intensity (a.u.).

Regarding “CGTCGTCTCTGTCAAACAACAGACATGGTCCACCCAAGAGCGGAGTCACCTAGTGCAG”, the binding signal was 5380 fluorescence intensity (a.u.).

Take “ATACAAGACAAATCGATTAACATAAGATCGATATATCGCTCGGAGTCACCTAGTGCAG”: the binding signal is 24700 fluorescence intensity (a.u.).

In the case of “GCGTGGCGCCACGTGACGCCCGGCGCGCGCGCGCGTCCGGCGGAGTCACCTAGTGCAG”, the binding signal was 16200 fluorescence intensity (a.u.).

For “CACATAACGCACAGACTCAGCCATGTAATGTACTCTACACCGGAGTCACCTAGTGCAG”, the binding signal is 3570 fluorescence intensity (a.u.).

For the sequence “TGATGGTGGAACAGTGACTGGATTCATCTACAGAAAGAAACGGAGTCACCTAGTGCAG”, the binding signal is 4870 fluorescence intensity (a.u.).

In the case of “AGGGTGCAGGAAAAGGATGCGGGCCGCCACGTGTCCCGCCCGGAGTCACCTAGTGCAG”, the binding signal was 16800 fluorescence intensity (a.u.).

Source of the values: paper PMC7819943, “Rice protein-binding microarrays: a tool to detect cis-acting elements near promoter regions in rice”.
